The nature of the test: qHTS Assay for Lipid Storage Modulators in Drosophila S3 Cells.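 As to cell number change: cells counted by Cell Tracker Red CMTPX staining in the red channel.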 The conditions noted are these: BODIPY lipid droplet fluorescence, 18-24 h; for cell number change: measured here: cell count max response, cells fed with added oleic acid. The essentials:
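Drosophila S3 cells got compounds at several concentrations plus oleic acid (400 uM solution). Laser-scanning cytometry with 488 nm excitation read lipid droplets at 500-530 nm and cells at 575-640 nm. Percent activity was relative to 20 uM Triacsin C.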

Setting [1] is: measured here: lipid fluorescence (Fed channel) AC50, cells fed with added oleic acid.
The mark [2] stands for this setting: measured here: cell number channel AC50, cells fed with added oleic acid.

Molecules are shown by their SMILES. The list shows a part of the results. The main result of the screen is listed elsewhere. These columns were measured beside it and carry no call. Compounds called inactive in the main read-out are mostly missing here. The note in brackets gives the kind of curve behind each potency; many fits are weak.

As for `CCC(=O)Nc1cccc(NC(=O)c2ccc(C)c([N+](=O)[O-])c2)c1`, the cell number change is 12.6%. Moreover, the AC50 under setting [1] was 0.00461 µM [rising, full curve, poor fit].
Consider `Cc1cccc(S(=O)(=O)NCCNS(=O)(=O)c2cccc(C)c2)c1`, for which the cell number change was -11.5%.
Take `CC1C/C(=N\NC(=O)c2cccnc2)CC(C)(C)C1` (stereo not drawn): the cell number change is -20.4%. Moreover, under setting [2], the AC50 is 0.82 µM [falling, full curve, poor fit].
In the case of `N#Cc1ccc(CSC2=NCCN2)cc1`, the cell number change was -57.7%. The AC50 under setting [2] is 29.1 µM [falling, single point].
As for `CCOc1cc(C(=O)Nc2ccc3c(c2)OCO3)ccc1OC(F)F`, the cell number change turned out to be 8.55%. Besides, the AC50 under setting [2] is 0.411 µM [rising, full curve]. Also, under setting [1], the AC50 is 1.3 µM [rising, partial curve].
For `Cn1nc(-c2ccc(Cl)cc2)c2cc(C(=O)NCCCN3CCCC3)sc21`, the cell number change worked out at 30.2%. In addition, the half-maximal activity concentration (AC50) under setting [2] is 20.6 µM [rising, single point]. Moreover, the AC50 under setting [1] was 29.1 µM [rising, single point].
For `CC(C(=O)Nc1ccccc1)N1CCN(c2ccccn2)CC1` (stereo not drawn), the cell number change was determined as 7.09%.
For `COc1cccc(CNC(=O)CN(C)S(=O)(=O)c2cnc[nH]2)c1`, the cell number change was -1.76%. The AC50 under setting [1] is 0.206 µM [falling, full curve].
Consider `COc1ccc(/C(C)=N/NC(=O)Cc2c(C)nc(C)[nH]c2=O)cc1`, for which the cell number change was found to be 4.44%. Further, the AC50 under setting [1] is 25.9 µM [rising, partial curve, poor fit].
Turning to `Cc1nn(C)cc1CNC(=O)C1C2CCC(C2)C1C(=O)O` (stereo not drawn), the cell number change is -23.7%. Besides, the AC50 under setting [1] is 20.6 µM [falling, single point].
Take `Fc1cccc(NCc2cn3ccccc3n2)c1`: the cell number change was -33%. Moreover, under setting [2], the AC50 was 29.1 µM [falling, single point].
In the case of `CC1=Nc2cc(C(=O)N3CCCC3)ccc2Sc2c(C)ccc(C)c21`, the cell number change is 4.59%. Besides, the AC50 under setting [1] was 29.1 µM [rising, single point].
On to `COc1cc(CCC(=O)NCc2ccc(S(N)(=O)=O)cc2)cc(OC)c1OC`, for which the cell number change was found to be 2.13%. Besides, under setting [1], the concentration at half-maximal activity (AC50) was 13 µM [falling, partial curve].
Turning to `O=C(CC1Sc2ccccc2NC1=O)Nc1ccccc1[N+](=O)[O-]` (stereo not drawn), the cell number change was -0.314%.
Turning to `NC(=O)C1CCN(C(=O)CSCc2ccccc2Cl)CC1`, the cell number change was found to be 8.27%. The AC50 under setting [1] is 0.103 µM [falling, full curve, poor fit].
With `O=C(NC(=O)c1ccccc1)NC1(C(F)(F)F)OCCO1`, the cell number change is -3.23%. Also, the AC50 under setting [2] was 0.231 µM [falling, full curve].
Take `Cc1ccc(S(=O)(=O)N2CC(=NN=C(N)N)C2)cc1`: the cell number change worked out at 10.3%.
Take `C=CCOc1ccc2c(c1)c(=O)cc(C(=O)O)n2CC`: the cell number change is -0.264%. Further, the AC50 under setting [2] was 6.51 µM [falling, single point]. Under setting [1], the AC50 was 6.51 µM [falling, single point].
`Cc1cc(Cl)c(C)c(S(=O)(=O)Oc2ccccc2NC(=O)CCC(=O)O)c1Cl`: the cell number change was -18.1%. Under setting [1], the AC50 was 32.6 µM [rising, single point].
With `COc1ccc(C(=O)NC2CCCc3ccccc32)c(OC)c1OC` (stereo not drawn), the cell number change worked out at 2.38%. Besides, the AC50 under setting [1] is 29.1 µM [rising, single point].
On to `CCN(CC)S(=O)(=O)c1ccc(C(=O)NCCOC(=O)c2ccc(F)cc2F)cc1`, for which the concentration at half-maximal activity (AC50) under setting [1] was 5.8 µM [falling, full curve].
For the molecule `CC1CCCN(C(=S)SCC(=O)O)C1` (stereo not drawn), the AC50 under setting [2] was 0.651 µM [falling, single point].
Regarding `C/C=C(\C)C(=O)NCCN1C2=NC[C@@H](C)N2C[C@H]1Cc1ccc(O)cc1`, the cell number change was 1.23%. For the same molecule, the AC50 under setting [1] was 2.59 µM [falling, full curve, poor fit].
As to `O=C(c1ccc(F)cc1F)N1CCCC(c2nc(-c3ccc(F)cc3)no2)C1` (stereo not drawn), under setting [1], the AC50 was 0.00461 µM [falling, full curve, poor fit].
With `Cc1onc(-c2c(F)cccc2Cl)c1C(=O)NCCO`, the cell number change was -37.1%. Besides, under setting [2], the half-maximal activity concentration (AC50) was 5.8 µM [falling, partial curve, poor fit].
For `O=C(COc1ccc(Cl)cc1Br)NCC(c1ccco1)N1CCCC1` (stereo not drawn), the cell number change is -15%. Under setting [1], the AC50 was 9.2 µM [rising, partial curve, poor fit].
For the molecule `Cc1ccc(O)c(CNCCNCc2cc(C)ccc2O)c1`, the cell number change is 5.12%. The AC50 under setting [1] is 0.731 µM [falling, partial curve, poor fit].
`Cc1cc(OCC(=O)NNC(=O)c2cnccn2)cc(C)c1Cl`: the cell number change was -11%. Moreover, the AC50 under setting [1] was 29.1 µM [rising, single point].
Turning to `CCN(CC(=O)Nc1c(F)cccc1F)C(=O)c1ccc(Sc2nncn2C)c([N+](=O)[O-])c1`, the cell number change is -25.3%.
As to `COc1ccc(CC(NC(C)=O)C(=O)NC2CCN(C(=O)Nc3ccccc3C)CC2)cc1OC` (stereo not drawn), the cell number change was -10.3%. Also, the AC50 under setting [1] is 6.51 µM [rising, single point].
For `CCN(CC)c1ccc(CNC23CN4CN(CN(C4)C2)C3)cc1`, the half-maximal activity concentration (AC50) under setting [1] was 6.51 µM [falling, single point].
As to `CCn1nc(C)cc1C(=O)Sc1cccc(Cl)c1`, the cell number change was -20.1%. For the same molecule, the AC50 under setting [1] is 0.461 µM [falling, full curve].
With `O=C(c1ccco1)N1CCN(Cc2cc(=O)c(OCc3ccccc3Cl)co2)CC1`, the cell number change is -47.8%. In addition, the half-maximal activity concentration (AC50) under setting [2] was 10.3 µM [falling, partial curve, poor fit].
`CCN(CC(=O)Nc1ccccc1C(F)(F)F)C(=O)c1ccc2[nH]c3c(c2c1)CC(C)CC3` (stereo not drawn): under setting [1], the AC50 was 0.13 µM [rising, full curve, poor fit].
`OCCCNc1c2ccccc2nc2ccccc12`: the cell number change was -24.2%. For the same molecule, the AC50 under setting [1] was 29.1 µM [falling, partial curve].
Consider `CCn1c(-c2cccnc2Cl)nc2ccccc21`, for which the cell number change stood at 62.1%. For the same molecule, under setting [2], the half-maximal activity concentration (AC50) is 8.2 µM [rising, partial curve].
As to `Cc1nn(-c2ccccc2)c(Cl)c1/C=N/NC(=O)c1ccnn1C`, the cell number change was determined as 48.2%. The AC50 under setting [2] is 29.1 µM [rising, single point].
For the molecule `COc1ccc(C2C3=C(CC(C)(C)CC3=O)Oc3ncn(Cc4ccco4)c(=N)c32)cc1` (stereo not drawn), the cell number change is 3.74%. Under setting [1], the AC50 is 7.31 µM [rising, partial curve].
As to `Cc1cc(Cl)ccc1NC(=O)c1ccc2c(c1)OCO2`, the cell number change was -9.79%. The AC50 under setting [1] was 29.1 µM [falling, single point].
Consider `CSc1nc(N)c2c3c(sc2n1)COC(C(C)C)C3` (stereo not drawn), for which the cell number change is 82.1%. For the same molecule, the AC50 under setting [2] is 29.1 µM [rising, single point].
As for `CSc1nc(=O)n(-c2ccccc2)c(C)c1C(C)=O`, the cell number change is 2.69%.
With `Cc1ccc(CNC(=O)COC(=O)c2cc(C)oc2C)cc1`, under setting [1], the AC50 was 6.51 µM [rising, partial curve, poor fit].
As for `O=C(CSc1nnc(Cc2ccccc2)n1-c1ccc(Cl)cc1)N1CCOCC1`, the cell number change is -52.5%. Under setting [2], the AC50 is 20.6 µM [falling, partial curve]. In addition, the half-maximal activity concentration (AC50) under setting [1] was 1.46 µM [falling, full curve, poor fit].
With `CCNC(=S)NNC(=O)c1nn(C)c(C)c1Cl`, the cell number change turned out to be 18.4%. Further, under setting [2], the half-maximal activity concentration (AC50) is 0.82 µM [rising, full curve]. The AC50 under setting [1] was 0.231 µM [rising, full curve, poor fit].
Turning to `O=C(NCc1ccccc1F)C(=O)NCC1OCCCN1S(=O)(=O)c1cccs1` (stereo not drawn), the cell number change was 31.2%. Also, the AC50 under setting [1] is 6.51 µM [rising, partial curve].
On to `Clc1cc(NCc2ccccc2)ncn1`, for which the cell number change came out at 5.21%. Moreover, the AC50 under setting [1] is 3.26 µM [falling, partial curve].
With `O=C(c1cc(=O)[nH]c2ccccc12)N(Cc1nnc(-c2ccccc2Cl)o1)C1CC1`, the cell number change came out at 120%. In addition, the AC50 under setting [2] was 14.6 µM [rising, partial curve].
Regarding `O=C1C2C3C=CC(CO)(O3)C2C(=O)N1c1ccc(-c2ccccc2)cc1` (stereo not drawn), the cell number change was -70.3%. Under setting [2], the AC50 is 16.4 µM [falling, partial curve]. For the same molecule, under setting [1], the AC50 was 18.4 µM [falling, partial curve].
Regarding `OC(CC#CCN1CCCC1)(c1ccccc1)c1ccccc1`, the cell number change was -5.96%. Moreover, under setting [1], the AC50 was 5.8 µM [falling, single point].
For the molecule `CCOc1ccc(C(C)NC(=S)NCc2ccc(F)cc2)cc1` (stereo not drawn), the cell number change worked out at 27.7%.
Consider `CCc1nc2ccc(C(=O)N(CC)CC(=O)Nc3c(F)cccc3F)cc2nc1CC`, for which the cell number change worked out at 8.13%. In addition, under setting [1], the AC50 was 14.6 µM [rising, single point].
As to `COc1ccc(NC(=O)NC2(C(=O)N3CCCCCC3)CCCCC2)cc1`, the cell number change was determined as 9.29%. Further, the AC50 under setting [1] was 0.00517 µM [falling, full curve].
With `c1ccc2c(Oc3ccc4c(c3)OCO4)nncc2c1`, the cell number change was -10.7%. The AC50 under setting [1] is 0.259 µM [rising, full curve].
As to `CC(C)CC(=O)OCC(=O)Nc1ccccc1Sc1ccccc1`, the cell number change came out at 3.93%. For the same molecule, the AC50 under setting [1] was 29.1 µM [rising, single point].
Take `CCn1c2ccccc2c2cc(NC(=O)CC(C)=O)ccc21`: the cell number change is 24.9%. For the same molecule, the AC50 under setting [1] was 5.8 µM [rising, full curve].
For the molecule `Cc1cccnc1NC(=O)CN1C(=O)c2ccccc2S1(=O)=O`, the AC50 under setting [2] is 2.59 µM [rising, partial curve].
`Cc1ccc(S(=O)(=O)NC(CC(=O)O)c2ccccc2)c(C)c1` (stereo not drawn): the cell number change was -15.5%. Moreover, the AC50 under setting [1] is 2.59 µM [falling, single point].
Take `O=C(N1CCC(O)(c2cccnc2)CC1)C12CC3CC(CC(C3)C1)C2`: the cell number change worked out at 20.1%. In addition, under setting [1], the AC50 is 0.517 µM [falling, full curve].
On to `CCOC(CNC(=O)CN1C(=O)COc2ccc(S(=O)(=O)N3CCCC3)cc21)OCC`, for which the cell number change was found to be 16.1%. Also, the AC50 under setting [1] is 3.66 µM [falling, full curve].
For `COc1cc2cc(CCCOC(=O)c3ccc(C(F)(F)F)cc3)oc(=O)c2cc1OC`, the cell number change was -4.33%. Under setting [1], the AC50 is 0.116 µM [falling, full curve, poor fit].
Turning to `FC(F)(F)c1cccc(NC(=S)NNC(=S)Nc2cccc(C(F)(F)F)c2)c1`, the cell number change was -55.4%. Moreover, the AC50 under setting [2] was 20.6 µM [falling, single point]. Under setting [1], the AC50 is 29.1 µM [falling, single point].
`Cc1ccc(-n2cnc3cc(NCc4cccs4)ccc32)cc1`: the cell number change was -33.6%. Under setting [2], the AC50 is 3.66 µM [falling, single point]. The AC50 under setting [1] is 6.51 µM [rising, partial curve, poor fit].

These data come from PubChem BioAssay AID2685 (National Center for Advancing Translational Sciences (NCATS), 2010).
